The target in the test is T1, BEN domain containing 5 (BEND5), endogenous (human (endogenous in MDA-MB-231 and ZR75-1)) (UniProt Q7L4P6).
T1 sequence: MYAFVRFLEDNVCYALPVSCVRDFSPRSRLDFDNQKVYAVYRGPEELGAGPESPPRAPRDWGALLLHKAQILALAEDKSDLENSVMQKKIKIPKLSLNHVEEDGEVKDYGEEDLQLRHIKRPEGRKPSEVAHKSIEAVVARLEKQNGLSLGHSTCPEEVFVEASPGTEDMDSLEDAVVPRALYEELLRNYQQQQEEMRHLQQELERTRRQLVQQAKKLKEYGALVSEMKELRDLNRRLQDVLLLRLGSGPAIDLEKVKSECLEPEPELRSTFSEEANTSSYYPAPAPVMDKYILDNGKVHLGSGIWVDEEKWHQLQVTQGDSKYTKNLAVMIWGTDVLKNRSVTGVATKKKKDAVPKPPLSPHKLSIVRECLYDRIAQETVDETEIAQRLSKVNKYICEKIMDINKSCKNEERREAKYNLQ
The test is described as follows: co-IP; endogenous proteins; MDA-MB-231 or ZR75-1 protein extract immunoprecipitated with anti-BEND5 or normal IgG, immunoblot with the indicated antibodies.

No constants are given. Whether binding was seen depends on the method and setting. Binding seen in cells or lysates may run through a third protein.

The text below walks through data of article PMC9274485.

“intracellular domain of Notch (NICD), endogenous (domain or fragment)”: the binding result was “no binding”. For the substance “mastermind like transcriptional coactivator (MAML), endogenous”, the binding result was “no binding”.
